# Laboratory results: article doi:10.1101/2021.01.05.425376
# No constants are given. Whether binding was seen depends on the method and setting. In cells and extracts the contact can be indirect. Some entries that bind do so weakly or less than the wild type. Sequences can lack the tags named with a protein.
# B1: Heh1^GFP (protein, UniProt Q03707 1-834)
# chain: MNSDLEYLEDGFDPNSMKVATLRRILVENNVDFPSNARKNALVGLFDEKVKPQIPQLRKMYLNVRPSDEGIVKMDRPSSSPSIASPRRSRRARREKSASPMAKQFKKNRILDDVSNDDDDDDDDDDDNDKKDDPLIVPSGTDTDEVDDEEDDVITSSSNKSDTNDFQQNSDTRKKRKDPDSDDWSESNSKENKIDNKHLNLLSSDSEIEQDYQKAKKRKTSDLNQEHGNGSAILGKLSVKTPIKNTNRKPVSMDNFNDSLTSSGTENDPFVPNIRHNPKELGTANGTGHSTPLSKLKVSASFADKLPQKEVPSTILVPEVEQQEPSQSERTPSLFSSEGSGSESEAPLLPEITTPGPHQPMGNTSNNVVEMIDTDSSNLVSDEDEVLVPTRIETPQLPTEKDVEKCEARVQELQEEVNEQLEHENGSEFDVKQGSGKVGNRHKFKRALKFLSKSLLALFLFCIFIVIPLLFGLWYREQRLLIGYCGHEVPSHRVSGNSFEFIQKLDNLLQDYRPKCIPCPPNGICYPYLKLKCKPDYKLAPSRLDFLEIIPAQGKCVKDDKKQQLVSEVVEKSLEFLRAKNAQISCGDGKDDIESGMTEDALYQIFNEARAPWIRDDEFEDLWIQVIKDLTEEPEILWRQLSPTDNNIGGNSNNIIKTNDVPRQKRHLPEKFISKTRNFRSTSKKYIGMKCRFEREIYQTYKKFQRPIWLMFLLIVISKVIEIKLKNYYRKKARIEELVTQTMEKLKFQKIKSMSDPKENAYLSIVQLRDIFLSDIVDLKYKNQLWSEVVKYLEHNNSNIKSNLTEIRGEIMKCWEWIGPMELNEPKDSAENKI
# B2: Nur1^3HA (protein, UniProt Q12066 1-484)
# chain: MGSNDLINEAYDDSEVVGEERESKSAWMKRWYQLLTSPLDLQLVINEKLEMINWDAYAKSLAKPLGNFLTILFFIIRLLQDNLIKPNYYKLNVKSGAFDLSKSNKLKEFDYLWEISSSFQNNNQFYAFQSWYFVTLRFLNNLFRFTIFILLSLNLYVSCKFMFGYFKTYNLFHLKKEFNSPNLTKHNLKDLSKEYYEDIYKQSLWSMLKHFFRGSRDDGPHVNQNEDEIFFQLRKWIPTNFMINLFVSFSPTAIVFLSFSDVSFTSAIAIVFHQYILDYIITKRFQRSVDDDLILSSAALQEYEDKHIMARINQCSNIDTLSSAMGTRSKTPRIFTTHSLCGEEIREVYNYEKREFEALPKMTESVPGSRETRIKDYGGISQVSDHQSHPIGFHYSPRMSPYYRDKVLDNNLAQSSSNENLEKGGAYLPNQDQNRPSKSLSPLRKTPLSARQKRFEGSEFNVLNKNDINSILRSPKKKKNYHKR
# B3: ^GFPHeh1 (long splice form Heh1) (protein, UniProt Q03707 1-834)
# chain: B1 chain
# Columns and labels:
# Assay in all cases: co-IP
# [1] = target: T1, Lrs4^TAP (S. cerevisiae) (UniProt Q04087)
# T1 sequence: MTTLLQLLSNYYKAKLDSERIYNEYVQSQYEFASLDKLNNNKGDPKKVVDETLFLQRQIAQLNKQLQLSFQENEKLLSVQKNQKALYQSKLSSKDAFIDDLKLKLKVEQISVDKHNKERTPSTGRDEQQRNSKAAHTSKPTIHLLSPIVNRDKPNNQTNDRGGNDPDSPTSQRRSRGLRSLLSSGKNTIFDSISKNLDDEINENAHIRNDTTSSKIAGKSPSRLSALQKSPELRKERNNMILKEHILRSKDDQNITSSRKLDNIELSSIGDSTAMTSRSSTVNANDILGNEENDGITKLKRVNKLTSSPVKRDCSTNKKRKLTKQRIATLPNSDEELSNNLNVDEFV
# [2] = target: T2, Nur1^3HA (S. cerevisiae) (UniProt Q12066)
# T2 sequence: B2 chain
# [3] = target: T3, Heh1^GFP (S. cerevisiae) (UniProt Q03707)
# T3 sequence: B1 chain
# [4] = target: T4, Lrs4^3HA (S. cerevisiae) (UniProt Q04087)
# T4 sequence: T1 sequence
binder,measurement,setting,value
B1,binding,[1],binds
same,binding,[2],binds
B2,binding,[3],binds
B3,binding,[4],binds
